# Test results from PubChem BioAssay AID2685 (National Center for Advancing Translational Sciences (NCATS), 2010).
# The other results are listed elsewhere or left out. These are further read-outs of the screen, such as a control signal, another cell line or another target. No call is given for them. The list favours compounds with an active or inconclusive main result. The note in brackets gives the kind of curve behind each potency; many fits are weak.
# Assay: qHTS Assay for Lipid Storage Modulators in Drosophila S3 Cells;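 as to cell number change: cells counted by Cell Tracker Red CMTPX staining in the red channel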
# Conditions: BODIPY lipid droplet fluorescence, 18-24 h; for cell number change: measured here: cell count max response, cells fed with added oleic acid
# Method in brief: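 Drosophila S3 cells got compounds at several concentrations plus oleic acid (400 uM solution). Laser-scanning cytometry with 488 nm excitation read lipid droplets at 500-530 nm and cells at 575-640 nm. Percent activity was relative to 20 uM Triacsin C.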
# [1] = measured here: cell number channel AC50, cells fed with added oleic acid
# [2] = measured here: lipid fluorescence (Fed channel) AC50, cells fed with added oleic acid
Structure (SMILES),cell number change [%],AC50 [1],AC50 [2]
COc1cc(S(=O)(=O)N2CCC(O)(c3cccc(C(F)(F)F)c3)CC2)ccc1-n1cnnn1,180,"7.31 µM [rising, partial curve]",
O=C(Nc1nnc(SCc2ccc(F)cc2)s1)C1=COCCO1,-2.63,,"1.46 µM [falling, partial curve, poor fit]"
COCCN1Cc2cccc(C(=O)NCCCN3CCCC3=O)c2C1=O,3.94,,"1.64 µM [falling, single point]"
Cc1nnc(NC(=O)CSc2nnc(C)n2-c2ccc(F)cc2)s1,,,"1.84 µM [rising, single point]"
CC(C)(C)NC(=O)c1ccc2c(c1)CCO2,-47.8,,"32.6 µM [falling, partial curve, poor fit]"
Cc1cc(C2CC(=O)Nc3ccccc3S2)c(C)s1 (configuration not stated),2.91,,"1.16 µM [rising, partial curve]"
COCCC(=O)N1CCC(Oc2ccc(C(=O)N3C[C@H]4CC[C@H]3C4)cc2)CC1,7.66,"6.51 µM [rising, single point]",
S=C(NCCc1ccccn1)Nc1ccc(Cl)c(Cl)c1,-10.8,"6.51 µM [falling, single point]","6.51 µM [falling, single point]"
O=C(O)c1cccc(N2C(=O)CSC2=S)c1,29.6,,"16.4 µM [rising, partial curve]"
CC(C)CCNC(=O)c1ccc2c(SCC(=O)O)c3c(nc2c1)CCC3,-11.5,,"2.06 µM [falling, partial curve]"
COc1ccccc1CCNC(=O)C(=O)NCCC1CCCCN1S(=O)(=O)c1cccs1 (configuration not stated),-35.8,"32.6 µM [falling, partial curve, poor fit]","6.51 µM [falling, single point]"
O=C(NCc1ccco1)C12CC3CC(C1)CC(C(=O)NCc1ccco1)(C3)C2,-17.6,,"25.9 µM [falling, single point]"
COc1cc(C(=O)OCC(=O)Nc2c(C)n(C)n(-c3ccccc3)c2=O)c([N+](=O)[O-])cc1OC,-32.7,"32.6 µM [falling, single point]","0.461 µM [rising, single point]"
CC(=O)c1ccc(NC(=S)NCCc2ccccn2)cc1,-40.2,"0.092 µM [falling, full curve, poor fit]","0.146 µM [rising, full curve, poor fit]"
CCC(C)c1c(O)nc(SCC(=O)N2CCOCC2)[nH]c1=O (configuration not stated),11.7,,"0.146 µM [falling, full curve, poor fit]"
O=c1cc(C(F)(F)F)[nH]c(=S)n1-c1ccccc1,-6.84,,
O=C(C1CC1)N1CCc2cc(S(=O)(=O)N3CCN(c4ccccc4)CC3)ccc21,5.7,"2.06 µM [rising, partial curve, poor fit]","0.58 µM [rising, single point]"
c1ccc2oc(-c3ccc(Nc4nc(N5CCCCC5)nc(N5CCOCC5)n4)cc3)nc2c1,20.6,,"10.3 µM [rising, partial curve]"
COc1ccc(-c2oc3ccccc3c2C(=O)OCc2ccc(O)cc2)cc1,-2.27,,"29.1 µM [rising, single point]"

Structure (SMILES),cell number change [%],AC50 [1],AC50 [2]
Cc1cc(N2C(=O)CC(N3CCN(c4ccc(C(=O)c5cccs5)cc4)CC3)C2=O)no1 (configuration not stated),,,"0.164 µM [rising, full curve, poor fit]"
Cc1cc(=O)oc(C)c1C(=O)Nc1cccc2ccccc12,-79.1,"29.1 µM [falling, single point]",
COC(=O)C1CCN(S(=O)(=O)c2ccc(NC(C)=O)cc2)CC1,20.1,,
O=C(C[n+]1cccc(NC(=O)c2ccccc2)c1)c1cccc([N+](=O)[O-])c1,22.2,,"0.0082 µM [falling, full curve, poor fit]"
C[C@]12C=CC(=O)C=C1CC[C@@H]1[C@@H]2[C@@H](O)C[C@@]2(C)[C@H]1CC[C@]2(O)C(=O)COC(=O)CCC(=O)O,-19.6,,"1.64 µM [falling, partial curve]"
O=c1[nH]c2ccccc2nc1/C=C(\O)c1cccs1,28.3,,
Cc1ccc(NCc2nnc(SCC(=O)N3c4ccccc4Sc4ccccc43)o2)c(C)c1,4.92,,"0.731 µM [rising, full curve, poor fit]"
CCCNC(=S)N1CCC(Cc2ccccc2)CC1,-11.6,,"0.366 µM [falling, full curve, poor fit]"
CCOc1ccccc1NC1c2ccccc2C(=O)N1Cc1ccco1 (configuration not stated),9.99,,
CCN(CC)C(=O)c1cnn(-c2ccccc2)c1NC(=O)c1ccco1,-33.9,"8.2 µM [falling, partial curve, poor fit]","3.26 µM [falling, full curve]"
Cc1ccc(C)c(C(=O)COc2ncnc3ccccc23)c1,65.9,"1.3 µM [rising, full curve]","0.731 µM [rising, full curve]"
CC(C)NC(=O)CC(=O)N/N=C/c1c(F)cccc1Cl,33.5,"1.84 µM [rising, full curve, poor fit]",
Cc1cc(C)cc(Nc2nc(-c3ccc(S(=O)(=O)N4CCCC4)cc3)cs2)c1,-1.1,,
Cc1n[nH]c(C)c1CCCCOc1ccccc1[N+](=O)[O-],1.23,,
Cc1cccc(N(CC(=O)Nc2c(C)n(C)n(-c3ccccc3)c2=O)S(C)(=O)=O)c1C,15.2,,
COc1ccc(CCN2CC(C(=O)N3CCC(OC)CC3)CCC2=O)cc1 (configuration not stated),,,"0.461 µM [rising, partial curve]"
O=C(N/N=C/c1ccc([N+](=O)[O-])o1)c1cn(-c2ccccc2)nc1-c1ccccc1,-2.26,,"0.206 µM [rising, full curve, poor fit]"
Cc1ccc(C2CN(C)C3(C(=O)Nc4ccccc43)C23COc2ccccc2C3=O)cc1 (configuration not stated),-36.3,"25.9 µM [falling, single point]","32.6 µM [falling, single point]"

# Another view of part of the listing above:
Structure (SMILES)	cell number change [%]	AC50 [1]	AC50 [2]
Cc1ccc(C)c(C(=O)COc2ncnc3ccccc23)c1	65.9	1.3 µM [rising, full curve]	0.731 µM [rising, full curve]
CC(C)NC(=O)CC(=O)N/N=C/c1c(F)cccc1Cl	33.5	1.84 µM [rising, full curve, poor fit]	
